Some entries repeat one wording, which the source may state once for all of them.
Tests used:
[1] = Indiscriminate thiol reactivity assay with GSH (LC-MS adduct quantification); conditions: 100 μM inhibitor, 5 mM GSH in PBS, 37° C., 16 h
[2] = Indiscriminate thiol reactivity assay with cysteine (LC-MS adduct quantification); conditions: for Adduct: 100 μM inhibitor, 10 mM cysteine, 10 mM phosphate pH 7.4, 37° C., 16 h; for adduct formation with cysteine (in words): cysteine assay, Table 1

Row | Structure (SMILES) | adduct formed with GSH [1] [%] | Adduct [2] [%] | adduct formation with cysteine (in words) [2]
1 | C#CC(C)NC(=O)[C@H](CC(C)(C)F)N[C@@H](c1ccc(-c2ccc(S(C)(=O)=O)cc2)cc1)C(F)(F)F (mixture of isomers) [Compound 5, (S)—N—((R/S)-but-3-yn-2-yl)-4-fluoro-4-methyl-2-(((S)-2,2,2-trifluoro-1-(4′-(methylsulfonyl)-[1,1′-biphenyl]-4-yl)ethyl)amino)pentanamide] | 0 | 0 | not detected
2 | CC(C)(F)C[C@H](N[C@@H](c1ccc(-c2ccc(S(C)(=O)=O)cc2)cc1)C(F)(F)F)C(=O)NCC#N [Compound 2, (S)—N-(cyanomethyl)-4-fluoro-4-methyl-2-(((S)-2,2,2-trifluoro-1-(4′-(methylsulfonyl)-[1,1′-biphenyl]-4-yl)ethyl)amino)pentanamide, reference compound] |  | 79 | significant adduct formation
3 | C#CC1(NC(=O)[C@H](CC(C)(C)F)N[C@@H](c2ccc(-c3ccc(S(C)(=O)=O)cc3)cc2)C(F)(F)F)CC1 [Compound 3, (S)—N-(1-ethynylcyclopropyl)-4-fluoro-4-methyl-2-(((S)-2,2,2-trifluoro-1-(4′-(methylsulfonyl)-[1,1′-biphenyl]-4-yl)ethyl)amino)pentanamide] |  | 0 | not detected
4 | C#CCNC(=O)[C@H](CC(C)(C)F)N[C@@H](c1ccc(-c2ccc(S(C)(=O)=O)cc2)cc1)C(F)(F)F [Compound 4, (S)-4-fluoro-4-methyl-N-(prop-2-yn-1-yl)-2-(((S)-2,2,2-trifluoro-1-(4′-(methylsulfonyl)-[1,1′-biphenyl]-4-yl)ethyl)amino)pentanamide] | 0 | 0 | not detected
5 | CC(C)(F)C[C@H](N[C@@H](c1ccc(-c2ccc(S(C)(=O)=O)cc2)cc1)C(F)(F)F)C(=O)NCC#CBr [Compound 6, (S)—N-(3-bromoprop-2-yn-1-yl)-4-fluoro-4-methyl-2-(((S)-2,2,2-trifluoro-1-(4′-(methylsulfonyl)-[1,1′-biphenyl]-4-yl)ethyl)amino)pentanamide] | 54 | 50 | 
6 | CC(C)C[C@H](NC(=O)[C@H]1O[C@@H]1C(=O)O)C(=O)NCCCCN=C(N)N [Compound E-64, reference compound] |  | 32 | significant adduct formation
7 | CC(C)(F)C[C@H](N[C@@H](c1ccc(-c2ccc(S(C)(=O)=O)cc2)cc1)C(F)(F)F)C(=O)NC1(C#N)CC1 [ODN, (S)—N-(1-cyanocyclopropyl)-4-fluoro-4-methyl-2-(((S)-2,2,2-trifluoro-1-(4′-(methylsulfonyl)-[1,1′-biphenyl]-4-yl)ethyl)amino)pentanamide, reference compound] |  | 25 | significant adduct formation
